The text below walks through data of article PMC9479434.

Protein sequences, listed by entry. Tags and fused reporters are not part of them. Residues count along the entry.
UniProt Q01705, residues 1744-2531: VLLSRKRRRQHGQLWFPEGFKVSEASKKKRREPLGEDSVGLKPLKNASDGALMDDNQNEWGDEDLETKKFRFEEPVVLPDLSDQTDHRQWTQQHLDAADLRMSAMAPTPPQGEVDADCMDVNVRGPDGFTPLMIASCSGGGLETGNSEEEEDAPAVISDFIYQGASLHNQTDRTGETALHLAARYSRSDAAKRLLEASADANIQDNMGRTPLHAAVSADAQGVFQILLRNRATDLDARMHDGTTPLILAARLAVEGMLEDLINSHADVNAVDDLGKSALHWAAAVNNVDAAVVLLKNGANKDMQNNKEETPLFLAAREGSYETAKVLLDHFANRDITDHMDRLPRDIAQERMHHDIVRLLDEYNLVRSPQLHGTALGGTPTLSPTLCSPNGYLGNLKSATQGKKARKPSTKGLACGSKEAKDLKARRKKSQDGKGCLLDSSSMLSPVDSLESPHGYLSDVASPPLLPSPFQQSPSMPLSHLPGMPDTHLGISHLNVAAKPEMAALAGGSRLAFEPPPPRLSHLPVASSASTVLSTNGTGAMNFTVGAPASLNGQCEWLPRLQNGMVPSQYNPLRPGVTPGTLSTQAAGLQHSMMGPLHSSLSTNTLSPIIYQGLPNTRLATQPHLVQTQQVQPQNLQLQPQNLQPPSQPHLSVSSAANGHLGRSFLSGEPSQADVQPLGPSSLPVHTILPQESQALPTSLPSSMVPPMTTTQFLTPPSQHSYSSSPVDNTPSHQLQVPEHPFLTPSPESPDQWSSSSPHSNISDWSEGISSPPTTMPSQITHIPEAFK
UniProt Q02248: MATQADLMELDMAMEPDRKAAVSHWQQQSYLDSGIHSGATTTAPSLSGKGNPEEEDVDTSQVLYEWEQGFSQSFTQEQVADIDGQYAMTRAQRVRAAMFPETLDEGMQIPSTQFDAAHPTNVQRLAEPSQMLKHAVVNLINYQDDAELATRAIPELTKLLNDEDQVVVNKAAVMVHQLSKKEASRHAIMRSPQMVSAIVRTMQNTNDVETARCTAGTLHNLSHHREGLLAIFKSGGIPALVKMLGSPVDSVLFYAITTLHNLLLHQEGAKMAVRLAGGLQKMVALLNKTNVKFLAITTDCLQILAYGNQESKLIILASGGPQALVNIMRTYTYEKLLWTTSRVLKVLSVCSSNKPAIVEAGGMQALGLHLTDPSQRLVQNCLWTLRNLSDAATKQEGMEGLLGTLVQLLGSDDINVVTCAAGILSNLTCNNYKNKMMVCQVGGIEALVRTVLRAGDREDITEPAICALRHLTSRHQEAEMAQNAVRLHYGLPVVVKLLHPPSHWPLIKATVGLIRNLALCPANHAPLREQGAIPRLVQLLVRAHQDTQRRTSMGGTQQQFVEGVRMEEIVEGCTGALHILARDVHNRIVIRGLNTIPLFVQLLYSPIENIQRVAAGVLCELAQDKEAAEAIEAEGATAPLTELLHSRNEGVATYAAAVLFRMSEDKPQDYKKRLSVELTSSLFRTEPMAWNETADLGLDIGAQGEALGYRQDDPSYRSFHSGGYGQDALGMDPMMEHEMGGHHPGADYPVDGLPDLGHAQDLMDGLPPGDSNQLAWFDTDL

Results are given in words; binding and its absence hold for the method and conditions named. In cells and extracts the contact can be indirect. Some results given as binding are weak or reduced against the parent protein; the word gives no strength.

This assay addresses Notch1 intracellular domain (mouse (endogenous in bone marrow-derived macrophages)) (UniProt Q01705). Kind of assay: co-IP; lysate of mouse bone marrow-derived macrophages (1 x 10^6) stimulated with LPS (100 ng/ml) for 6 h; endogenous proteins; which of the two was precipitated is not told in the text shown.

In the case of β-catenin (from UniProt Q02248 1-781), the binding entry is reported as “binds”.
